The source of these data is doi:10.1101/2023.07.15.549169.

Sequences of proteins named here, by UniProt entry; tags and fusion partners are left off. Residues count along the entry.
UniProt Q13485, residues 319-552: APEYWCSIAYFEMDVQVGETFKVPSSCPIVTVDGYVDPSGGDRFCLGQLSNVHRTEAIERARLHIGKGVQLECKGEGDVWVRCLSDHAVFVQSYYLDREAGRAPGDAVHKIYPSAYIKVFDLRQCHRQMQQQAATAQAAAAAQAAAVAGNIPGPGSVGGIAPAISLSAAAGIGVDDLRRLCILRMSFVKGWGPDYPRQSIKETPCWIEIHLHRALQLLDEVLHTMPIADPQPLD
UniProt P84022, residues 219-425: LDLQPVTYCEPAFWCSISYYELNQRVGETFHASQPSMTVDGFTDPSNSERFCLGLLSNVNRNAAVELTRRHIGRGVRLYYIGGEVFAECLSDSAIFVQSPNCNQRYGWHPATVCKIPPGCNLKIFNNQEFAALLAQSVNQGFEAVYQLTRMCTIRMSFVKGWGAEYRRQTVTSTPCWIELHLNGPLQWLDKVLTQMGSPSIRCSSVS

No constants are given. Whether binding was seen depends on the method and setting. In cells and extracts the contact can be indirect. Some binding calls cover weakened binding; strength is not graded here.

The assay addresses GST-SMAD4-MH2 (UniProt Q13485). Briefly: pull-down.

Consider “Venus-flag-tagged (VF) SMAD3-MH2 (from UniProt P84022 219-425) (domain or fragment)”, for which the binding result is reported as “binds”.
